Measured values published in the supplement of paper PMC10849652.
The list shows a part of the results.

The chains behind the UniProt entries cited, without tags or fusion partners. Where a name states a change or a piece, a line headed by the entry shows the natural chain unless it says otherwise.
UniProt P09651: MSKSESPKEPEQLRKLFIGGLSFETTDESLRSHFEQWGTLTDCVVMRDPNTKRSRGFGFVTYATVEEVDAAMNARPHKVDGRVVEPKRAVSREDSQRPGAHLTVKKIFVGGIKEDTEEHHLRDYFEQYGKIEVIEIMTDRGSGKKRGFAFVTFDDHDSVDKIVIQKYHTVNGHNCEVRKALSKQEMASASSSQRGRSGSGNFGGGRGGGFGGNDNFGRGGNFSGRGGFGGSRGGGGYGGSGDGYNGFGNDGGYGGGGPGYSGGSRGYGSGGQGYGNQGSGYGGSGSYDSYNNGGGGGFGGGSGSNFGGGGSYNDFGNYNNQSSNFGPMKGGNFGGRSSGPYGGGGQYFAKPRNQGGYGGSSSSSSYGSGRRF
UniProt P13598: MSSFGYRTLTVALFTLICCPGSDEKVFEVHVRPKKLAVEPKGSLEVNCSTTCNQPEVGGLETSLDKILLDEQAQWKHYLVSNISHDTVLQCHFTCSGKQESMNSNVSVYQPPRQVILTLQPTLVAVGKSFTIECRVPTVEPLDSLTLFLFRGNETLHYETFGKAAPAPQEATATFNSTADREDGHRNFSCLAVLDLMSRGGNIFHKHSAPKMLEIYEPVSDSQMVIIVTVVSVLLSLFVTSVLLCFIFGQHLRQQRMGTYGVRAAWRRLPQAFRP
UniProt P09429: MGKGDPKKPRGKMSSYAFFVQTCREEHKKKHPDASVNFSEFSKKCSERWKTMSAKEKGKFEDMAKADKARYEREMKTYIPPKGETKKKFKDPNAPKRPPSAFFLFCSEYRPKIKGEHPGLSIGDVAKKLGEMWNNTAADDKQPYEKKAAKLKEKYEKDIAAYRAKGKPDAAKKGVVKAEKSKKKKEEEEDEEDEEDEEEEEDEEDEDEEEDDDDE
UniProt Q9NQE9: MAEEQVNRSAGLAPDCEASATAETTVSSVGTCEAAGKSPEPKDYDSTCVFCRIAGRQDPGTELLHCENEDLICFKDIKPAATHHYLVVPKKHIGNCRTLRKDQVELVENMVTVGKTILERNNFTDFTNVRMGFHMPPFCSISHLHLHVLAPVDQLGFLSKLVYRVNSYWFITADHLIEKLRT
UniProt Q15651: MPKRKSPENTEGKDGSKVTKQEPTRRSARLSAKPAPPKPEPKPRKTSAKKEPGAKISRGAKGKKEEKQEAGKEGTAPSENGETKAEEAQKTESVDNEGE
UniProt O43390: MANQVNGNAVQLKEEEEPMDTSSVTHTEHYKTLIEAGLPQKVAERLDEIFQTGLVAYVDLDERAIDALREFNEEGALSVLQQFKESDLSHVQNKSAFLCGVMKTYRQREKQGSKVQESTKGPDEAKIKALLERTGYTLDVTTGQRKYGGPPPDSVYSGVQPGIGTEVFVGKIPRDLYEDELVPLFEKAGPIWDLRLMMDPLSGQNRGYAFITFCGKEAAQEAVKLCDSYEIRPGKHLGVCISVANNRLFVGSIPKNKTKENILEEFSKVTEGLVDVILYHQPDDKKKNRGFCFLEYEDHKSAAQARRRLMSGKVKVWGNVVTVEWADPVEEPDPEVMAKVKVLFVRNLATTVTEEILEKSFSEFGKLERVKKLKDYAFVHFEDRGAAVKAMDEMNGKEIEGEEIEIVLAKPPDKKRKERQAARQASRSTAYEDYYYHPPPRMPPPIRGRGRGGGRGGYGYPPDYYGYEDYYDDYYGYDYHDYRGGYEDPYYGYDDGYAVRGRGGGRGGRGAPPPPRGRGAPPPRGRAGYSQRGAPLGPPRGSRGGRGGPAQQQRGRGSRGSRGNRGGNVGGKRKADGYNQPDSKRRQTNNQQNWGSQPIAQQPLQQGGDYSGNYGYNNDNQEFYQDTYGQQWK
UniProt Q9NSE4: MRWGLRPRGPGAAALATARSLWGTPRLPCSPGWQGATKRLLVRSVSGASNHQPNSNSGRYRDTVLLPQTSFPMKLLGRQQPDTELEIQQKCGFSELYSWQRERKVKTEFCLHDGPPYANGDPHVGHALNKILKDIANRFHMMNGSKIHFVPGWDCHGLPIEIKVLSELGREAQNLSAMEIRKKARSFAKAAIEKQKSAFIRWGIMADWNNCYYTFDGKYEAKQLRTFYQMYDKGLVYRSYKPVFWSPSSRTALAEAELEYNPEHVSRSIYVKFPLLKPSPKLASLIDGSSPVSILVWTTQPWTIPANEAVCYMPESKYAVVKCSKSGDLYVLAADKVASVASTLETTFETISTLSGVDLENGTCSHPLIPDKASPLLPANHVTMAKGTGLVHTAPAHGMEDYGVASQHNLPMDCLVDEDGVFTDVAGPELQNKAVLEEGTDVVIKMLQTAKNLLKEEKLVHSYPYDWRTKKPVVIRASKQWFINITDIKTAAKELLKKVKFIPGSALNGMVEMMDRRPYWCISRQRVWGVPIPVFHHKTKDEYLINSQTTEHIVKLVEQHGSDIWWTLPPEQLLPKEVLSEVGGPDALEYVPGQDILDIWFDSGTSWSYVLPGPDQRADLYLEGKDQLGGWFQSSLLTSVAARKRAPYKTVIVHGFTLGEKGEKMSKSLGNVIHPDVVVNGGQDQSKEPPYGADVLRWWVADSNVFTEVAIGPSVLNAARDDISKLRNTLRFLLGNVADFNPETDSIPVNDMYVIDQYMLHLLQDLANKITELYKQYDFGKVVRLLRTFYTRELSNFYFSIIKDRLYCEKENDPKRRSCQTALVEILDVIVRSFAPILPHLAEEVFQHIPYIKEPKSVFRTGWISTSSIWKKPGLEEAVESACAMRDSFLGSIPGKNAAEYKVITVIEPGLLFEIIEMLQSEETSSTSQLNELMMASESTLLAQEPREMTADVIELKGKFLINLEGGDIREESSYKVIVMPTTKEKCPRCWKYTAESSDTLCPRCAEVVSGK
UniProt Q99714: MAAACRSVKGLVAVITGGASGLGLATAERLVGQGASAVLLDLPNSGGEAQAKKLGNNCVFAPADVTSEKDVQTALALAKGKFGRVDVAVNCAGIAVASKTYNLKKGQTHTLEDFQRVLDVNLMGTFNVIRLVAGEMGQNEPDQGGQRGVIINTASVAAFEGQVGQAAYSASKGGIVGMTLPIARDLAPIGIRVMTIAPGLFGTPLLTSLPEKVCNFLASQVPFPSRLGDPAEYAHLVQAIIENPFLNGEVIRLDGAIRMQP
UniProt Q6NVY1: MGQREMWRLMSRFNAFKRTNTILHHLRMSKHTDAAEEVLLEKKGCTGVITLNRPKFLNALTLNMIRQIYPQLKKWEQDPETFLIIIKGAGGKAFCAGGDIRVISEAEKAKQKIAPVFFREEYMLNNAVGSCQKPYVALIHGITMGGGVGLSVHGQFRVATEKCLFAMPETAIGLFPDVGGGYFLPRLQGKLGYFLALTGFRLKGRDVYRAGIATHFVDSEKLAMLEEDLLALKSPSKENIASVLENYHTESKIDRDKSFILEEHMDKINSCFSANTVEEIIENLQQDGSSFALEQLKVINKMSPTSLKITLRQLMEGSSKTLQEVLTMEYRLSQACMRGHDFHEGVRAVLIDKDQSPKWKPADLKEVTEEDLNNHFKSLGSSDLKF
UniProt O95757: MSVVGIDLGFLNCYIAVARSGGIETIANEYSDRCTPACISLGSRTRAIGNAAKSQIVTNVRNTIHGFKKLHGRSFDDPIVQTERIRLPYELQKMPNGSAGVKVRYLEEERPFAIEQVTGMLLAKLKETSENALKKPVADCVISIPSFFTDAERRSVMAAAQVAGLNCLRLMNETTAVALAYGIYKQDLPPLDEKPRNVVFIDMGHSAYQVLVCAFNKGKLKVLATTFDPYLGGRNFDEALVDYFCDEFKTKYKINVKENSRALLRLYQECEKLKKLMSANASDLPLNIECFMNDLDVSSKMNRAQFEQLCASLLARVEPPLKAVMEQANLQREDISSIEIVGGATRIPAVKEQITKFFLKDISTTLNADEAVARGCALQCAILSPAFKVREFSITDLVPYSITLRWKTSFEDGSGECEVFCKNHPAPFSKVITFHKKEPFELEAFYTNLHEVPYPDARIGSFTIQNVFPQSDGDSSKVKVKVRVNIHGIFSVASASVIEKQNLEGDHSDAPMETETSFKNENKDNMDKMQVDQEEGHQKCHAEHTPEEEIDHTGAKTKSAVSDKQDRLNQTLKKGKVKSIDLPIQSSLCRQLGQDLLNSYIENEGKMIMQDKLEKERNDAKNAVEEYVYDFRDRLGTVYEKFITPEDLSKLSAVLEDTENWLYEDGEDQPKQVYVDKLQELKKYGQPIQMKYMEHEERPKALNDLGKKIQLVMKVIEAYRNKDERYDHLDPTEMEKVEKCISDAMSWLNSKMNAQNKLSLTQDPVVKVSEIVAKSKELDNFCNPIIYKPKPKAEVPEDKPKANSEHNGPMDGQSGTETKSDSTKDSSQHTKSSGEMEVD
UniProt Q3SXM5: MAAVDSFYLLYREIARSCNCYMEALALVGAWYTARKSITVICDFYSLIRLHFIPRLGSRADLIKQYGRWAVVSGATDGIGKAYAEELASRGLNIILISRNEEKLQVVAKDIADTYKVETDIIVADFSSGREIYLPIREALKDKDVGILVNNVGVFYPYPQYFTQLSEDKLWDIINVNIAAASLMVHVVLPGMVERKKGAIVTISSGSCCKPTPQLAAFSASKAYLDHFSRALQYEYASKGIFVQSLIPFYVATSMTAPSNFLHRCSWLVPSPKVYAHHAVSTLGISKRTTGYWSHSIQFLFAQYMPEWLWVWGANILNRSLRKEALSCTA
UniProt Q9Y547: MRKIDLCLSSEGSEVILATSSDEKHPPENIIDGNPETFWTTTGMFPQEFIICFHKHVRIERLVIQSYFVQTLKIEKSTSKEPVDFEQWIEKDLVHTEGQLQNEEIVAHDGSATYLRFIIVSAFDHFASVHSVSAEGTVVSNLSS
UniProt P49773: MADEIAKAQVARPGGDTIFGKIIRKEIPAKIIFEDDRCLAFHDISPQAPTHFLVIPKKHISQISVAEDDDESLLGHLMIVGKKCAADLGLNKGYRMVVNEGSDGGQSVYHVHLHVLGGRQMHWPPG
UniProt P48723: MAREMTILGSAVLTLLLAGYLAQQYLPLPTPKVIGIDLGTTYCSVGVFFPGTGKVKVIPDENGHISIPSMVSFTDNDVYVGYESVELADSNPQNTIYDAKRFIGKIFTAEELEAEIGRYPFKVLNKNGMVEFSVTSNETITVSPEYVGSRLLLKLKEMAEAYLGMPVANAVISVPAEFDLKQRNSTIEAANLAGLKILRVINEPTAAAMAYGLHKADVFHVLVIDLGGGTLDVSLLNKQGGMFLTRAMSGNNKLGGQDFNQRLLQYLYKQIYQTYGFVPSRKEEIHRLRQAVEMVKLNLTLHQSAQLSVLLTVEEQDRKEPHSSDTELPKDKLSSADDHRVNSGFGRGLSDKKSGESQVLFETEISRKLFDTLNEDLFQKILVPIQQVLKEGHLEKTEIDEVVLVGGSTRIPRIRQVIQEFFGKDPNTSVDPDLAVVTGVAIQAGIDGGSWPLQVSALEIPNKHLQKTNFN
UniProt P61604, whole entry, looked up: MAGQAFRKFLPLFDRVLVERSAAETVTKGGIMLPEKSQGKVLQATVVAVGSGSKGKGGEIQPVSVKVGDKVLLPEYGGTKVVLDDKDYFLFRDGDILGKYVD
UniProt P31942: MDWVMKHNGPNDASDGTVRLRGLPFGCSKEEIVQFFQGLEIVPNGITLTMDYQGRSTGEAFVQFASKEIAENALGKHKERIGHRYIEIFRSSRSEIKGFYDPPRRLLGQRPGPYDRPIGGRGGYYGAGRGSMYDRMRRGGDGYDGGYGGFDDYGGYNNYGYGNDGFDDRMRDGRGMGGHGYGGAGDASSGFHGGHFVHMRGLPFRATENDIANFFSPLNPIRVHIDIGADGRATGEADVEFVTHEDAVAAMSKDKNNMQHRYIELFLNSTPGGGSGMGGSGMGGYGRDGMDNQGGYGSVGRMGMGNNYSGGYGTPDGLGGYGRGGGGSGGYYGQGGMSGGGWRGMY
UniProt P50747: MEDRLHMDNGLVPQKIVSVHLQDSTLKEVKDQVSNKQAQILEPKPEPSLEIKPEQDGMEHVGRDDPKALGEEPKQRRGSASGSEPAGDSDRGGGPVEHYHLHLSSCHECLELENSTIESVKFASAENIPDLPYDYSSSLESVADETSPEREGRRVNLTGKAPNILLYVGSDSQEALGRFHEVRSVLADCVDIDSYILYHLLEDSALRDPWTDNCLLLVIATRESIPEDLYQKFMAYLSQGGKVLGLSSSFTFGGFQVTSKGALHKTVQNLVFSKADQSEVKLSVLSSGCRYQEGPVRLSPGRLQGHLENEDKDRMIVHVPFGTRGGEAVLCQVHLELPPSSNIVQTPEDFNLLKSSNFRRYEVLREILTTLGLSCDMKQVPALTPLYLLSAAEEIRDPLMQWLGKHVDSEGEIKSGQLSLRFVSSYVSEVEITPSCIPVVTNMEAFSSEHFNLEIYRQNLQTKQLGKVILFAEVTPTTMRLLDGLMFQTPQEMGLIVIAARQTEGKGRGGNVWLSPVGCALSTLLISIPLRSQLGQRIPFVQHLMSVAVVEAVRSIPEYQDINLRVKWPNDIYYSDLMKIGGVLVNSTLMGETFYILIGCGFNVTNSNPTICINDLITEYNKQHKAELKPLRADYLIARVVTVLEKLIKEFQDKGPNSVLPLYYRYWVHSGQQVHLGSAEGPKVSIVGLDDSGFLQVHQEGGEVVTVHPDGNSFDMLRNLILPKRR

Key:
Test in all cases: log2 fold change, soluble protein after heating vs DMSO (PISA); higher = thermal stabilisation; K562 cells, 10 uM, 30 min; active = over 0.2 and 3.5 SD of the protein, either way, in both replicates (recomputed)
[1] = compound: CC[C@@H]1C(=O)N(C)c2cnc(Nc3ccc(C(=O)NC4CCN(C)CC4)cc3OC)nc2N1C1CCCC1
Procedure, shortened: (§1)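 K562 cells at 2×10^6 cells/mL were treated with 10 μM compound for 30 min. Aliquots were heated for 3 min across 48°C-58°C, pooled, and extracted in PBS with 0.5% NP-40 at 4°C; soluble protein was the supernatant after 21,000xg for 90 min. Soluble protein was quantified by TMTpro 16plex LC-MS/MS with channel sums equalised, and reported as log2 fold change in thermal stability against DMSO controls, with values from duplicates.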

[2] = compound: CC[C@@H]1C(=O)N(C)c2cnc(Nc3ccc(C(=O)N[C@H]4CC[C@H](N5CCN(CC6CC6)CC5)CC4)cc3OC)nc2N1C(C)C [volasertib]
Procedure, shortened: as §1

[3] = compound: CC[C@H](C)N1C=C(C2=C(C=C(C=C21)C3=CN=C(C=C3)N4CCNCC4)C(=O)NCC5=C(C=C(NC5=O)C)C)C
Procedure, shortened: as §1

[4] = compound: CC[C@H](C)[C@@H](C(=O)N[C@@H]([C@@H](C)O)C(=O)N[C@@H](CC(C)C)C(=O)[C@]1(CO1)C)NC(=O)[C@H]([C@@H](C)CC)N(C)C(=O)C [epoxomicin]
Procedure, shortened: as §1

[5] = compound: CCn1c(C(=O)N(C2CC2)C2CC2)cc2c3c(ncn3C)c(Nc3cc(C)n(C)n3)nc21
Procedure, shortened: as §1

[6] = compound: CCn1cc(-c2ccnc3[nH]c(-c4cccc(CN(C)C)c4)cc23)c(-c2ccc(NC(=O)N(C)C)cc2)n1
Procedure, shortened: as §1

[7] = compound: CN(C)CC(=O)Nc1ccc2[nH]c(=O)c3ccccc3c2c1
Procedure, shortened: as §1

[8] = compound: CN(CCOC1=CC=C(C=C1)C[C@H]2C(=O)NC(=O)S2)C3=CC=CC=N3 (racemic) [rosiglitazone]
Procedure, shortened: as §1

[9] = compound: CN1C2=C(C3=C1C(=O)N(N=C3)CC4=CC(=CC=C4)N)SC(=C2)S(=O)C
Procedure, shortened: as §1

[10] = compound: CN1CCC(CNc2ccc3ncc(-c4cccc(OC(F)(F)F)c4)n3n2)CC1
Procedure, shortened: as §1

Measured: log2 fold change

IARS (UniProt P41252)
inactive: [1] 0.106 | [2] 0.025 | [3] 0.059 | [4] -0.256 | [5] -0.056 | [6] 0.156 | [7] -0.007 | [8] -0.033 | [9] 0.334 | [10] 0.022

IDE (UniProt P14735)
inactive: [1] 0.056 | [2] -0.063 | [3] 0.073 | [4] 0.081 | [5] -0.088 | [6] -0.077 | [7] 0.043 | [8] 0.055 | [9] 0.042 | [10] -0.053

HNRNPA1 (UniProt P09651)
inactive: [1] 0.217 | [2] 0.144 | [3] -0.01 | [4] -0.334 | [5] -0.068 | [6] 0.259 | [7] -0.112 | [8] -0.154 | [9] 0.276 | [10] 0.264

ICAM2 (UniProt P13598)
inactive: [1] 0.027 | [2] 0.045 | [3] 0.03 | [4] 0.02 | [5] 0.051 | [6] -0.076 | [7] 0.131 | [8] -0.014 | [9] -0.181 | [10] 0.08

HMGB1 (UniProt P09429)
inactive: [1] -0.077 | [2] 0.069 | [3] 0.032 | [4] 0.062 | [5] 0.005 | [6] -0.011 | [7] 0.003 | [8] -0.015 | [9] -0.037 | [10] 0.011

HS2ST1 (UniProt Q7LGA3)
inactive: [1] 0.04 | [2] 0.006 | [3] -0.006 | [4] -0.097 | [5] 0.027 | [6] -0.049 | [7] -0.054 | [8] -0.027 | [9] 0.032 | [10] -0.006

HINT3 (UniProt Q9NQE9)
inactive: [1] -0.028 | [2] -0.006 | [3] -0.025 | [4] -0.028 | [5] -0.026 | [6] -0.041 | [7] 0.011 | [8] -0.029 | [9] -0.033 | [10] -0.161

HNRNPLL (UniProt Q8WVV9)
inactive: [1] -0.128 | [2] -0.346 | [3] 0.118 | [4] -0.088 | [5] -0.081 | [6] -0.033 | [7] 0.211 | [8] 0.074 | [9] -0.031 | [10] -0.169

HUS1 (UniProt O60921)
inactive: [1] -0.046 | [2] -0.075 | [3] -0.042 | [4] 0.028 | [5] 0.005 | [6] -0.028 | [7] 0.004 | [8] 0.018 | [9] -0.086 | [10] -0.019

HNRNPU (UniProt Q00839)
inactive: [1] 0.017 | [2] -0.027 | [3] 0.069 | [4] -0.05 | [5] -0.089 | [6] 0.176 | [7] -0.034 | [8] -0.097 | [9] 0.19 | [10] -0.11

HMGN3 (UniProt Q15651)
inactive: [1] 0.037 | [2] 0.077 | [3] -0.085 | [4] 0.005 | [5] 0.059 | [6] -0.006 | [7] -0.014 | [8] -0.015 | [9] 0.033 | [10] -0.099

HNRNPA0 (UniProt Q13151)
inactive: [1] 0.051 | [2] -0.095 | [3] 0.168 | [4] -0.103 | [5] -0.033 | [6] 0.134 | [7] -0.05 | [8] -0.039 | [9] 0.249 | [10] 0.099

HNRNPR isoform 2 (UniProt O43390)
inactive: [1] 0.112 | [2] 0.079 | [3] 0.011 | [4] -0.2 | [5] 0.019 | [6] 0.216 | [7] -0.07 | [8] -0.092 | [9] 0.186 | [10] 0.073

Quoted at random: 2 entries already listed.
HNRNPR isoform 2 (UniProt O43390)
inactive: [1] 0.112 | [2] 0.079 | [3] 0.011 | [4] -0.2 | [5] 0.019 | [6] 0.216 | [7] -0.07 | [8] -0.092 | [9] 0.186 | [10] 0.073

ICAM2 (UniProt P13598)
inactive: [1] 0.027 | [2] 0.045 | [3] 0.03 | [4] 0.02 | [5] 0.051 | [6] -0.076 | [7] 0.131 | [8] -0.014 | [9] -0.181 | [10] 0.08

Later entries:

HSD17B7 (UniProt P56937)
inactive: [1] -0.08 | [2] -0.112 | [3] 0.065 | [4] 0.047 | [5] 0.016 | [6] -0.04 | [7] -0.032 | [8] 0.049 | [9] -0.035 | [10] -0.126

IARS2 (UniProt Q9NSE4)
inactive: [1] 0.006 | [2] 0.022 | [3] -0.003 | [4] -0.02 | [5] 0.005 | [6] -0.015 | [7] -0.012 | [8] 0.008 | [9] -0.043 | [10] 0.051

HMCN1 (UniProt Q96RW7)
inactive: [1] 0.023 | [2] 0.057 | [3] 0 | [4] -0.45 | [5] 0.034 | [6] -0.052 | [7] 0.005 | [8] -0.011 | [9] 0.281 | [10] 0.13

HSPBP1 isoform 3 (UniProt Q9NZL4)
inactive: [1] -0.069 | [2] -0.169 | [3] 0.03 | [4] 0.033 | [5] 0.024 | [6] -0.015 | [7] 0.025 | [8] 0.023 | [9] -0.052 | [10] 0.052

HSD17B10 (UniProt Q99714)
inactive: [1] 0.041 | [2] 0.056 | [3] 0.01 | [4] 0.051 | [5] -0.007 | [6] -0.087 | [7] 0.061 | [8] 0.026 | [9] -0.126 | [10] 0.094

HSPA6 (UniProt P17066)
inactive: [1] 0.021 | [2] 0.142 | [3] -0.043 | [4] -0.019 | [5] 0.008 | [6] 0.006 | [7] -0.034 | [8] -0.003 | [9] 0.009 | [10] 0.058

HIBCH (UniProt Q6NVY1)
inactive: [1] 0.081 | [2] 0.053 | [3] 0.019 | [4] 0.012 | [5] 0.07 | [6] -0.08 | [7] 0.01 | [8] 0.045 | [9] -0.089 | [10] -0.099

HSPA4L (UniProt O95757)
inactive: [1] -0.015 | [2] -0.044 | [3] 0.031 | [4] 0.024 | [5] -0.006 | [6] -0.047 | [7] 0.004 | [8] 0.042 | [9] -0.048 | [10] -0.007

HSDL1 (UniProt Q3SXM5)
inactive: [1] 0.064 | [2] 0.106 | [3] -0.032 | [4] -0.019 | [5] 0.006 | [6] -0.037 | [7] 0 | [8] -0.017 | [9] -0.1 | [10] 0.027

HSPB11 (UniProt Q9Y547)
inactive: [1] -0.019 | [2] 0.019 | [3] 0.062 | [4] -0.015 | [5] -0.106 | [6] -0.117 | [7] 0.03 | [8] 0.068 | [9] -0.11 | [10] 0

HINT1 (UniProt P49773)
inactive: [1] 0.014 | [2] 0.161 | [3] -0.027 | [4] 0.146 | [5] 0.016 | [6] -0.014 | [7] 0.028 | [8] -0.024 | [9] -0.032 | [10] 0.09

HSPA13 (UniProt P48723)
inactive: [1] -0.007 | [2] -0.077 | [3] 0.003 | [4] -0.014 | [5] 0.004 | [6] -0.031 | [7] -0.005 | [8] -0.015 | [9] -0.056 | [10] 0.158

HSPE1 (UniProt P61604)
inactive: [1] 0.018 | [2] 0.202 | [3] -0.05 | [4] 0.001 | [5] 0.041 | [6] 0.009 | [7] -0.054 | [8] -0.019 | [9] -0.007 | [10] 0.063

HIF1AN (UniProt Q9NWT6)
inactive: [1] -0.041 | [2] -0.016 | [3] 0.04 | [4] 0.088 | [5] 0.022 | [6] 0.097 | [7] -0.053 | [8] 0.011 | [9] -0.097 | [10] -0.036

HNRNPH3 (UniProt P31942)
inactive: [1] -0.035 | [2] 0.07 | [3] 0.085 | [4] -0.168 | [5] -0.237 | [6] 0.174 | [7] 0.149 | [8] -0.258 | [9] 0.455 | [10] 0.124

HMGN5 (UniProt P82970)
inactive: [1] 0.018 | [2] 0.042 | [3] -0.03 | [4] 0.019 | [5] 0.026 | [6] 0.022 | [7] 0.032 | [8] -0.02 | [9] 0.003 | [10] 0.106

HLCS (UniProt P50747)
inactive: [1] -0.001 | [2] -0.216 | [3] 0.016 | [4] 0.039 | [5] 0.012 | [6] 0.004 | [7] 0.066 | [8] 0.049 | [9] -0.045 | [10] -0.014
